Where a name gives a salt, the structure may show the parent alone. This is one part of the list. Hit calls seldom repeat between salt and free forms of one compound.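 Kinases, fused to nanoluciferase, were expressed in K562 cells; luminescence was measured every 4 h from 2 to 18 h as percent of control (DMSO = 100%, positive control = 0%). A time point is decreased if signal falls significantly (2 sigma). Hits were called by the authors by a rule that is not shown; the count of time points alone does not decide it.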
How the values were obtained:
Assay in all cases: kinase-Nluc reporter destabilization hit call (1 = scored as downregulated) (binary); higher = compound decreases kinase abundance
Details in all cases: K562, 2-18 h
[1] = target: CDK7 (UniProt P50613)
[2] = target: CDK9 (UniProt P50750)
[3] = target: CHEK2 (UniProt O96017)
[4] = target: CSF1R (UniProt P07333)
[5] = target: CSK (UniProt P41240)
[6] = target: CSNK1A1 (UniProt P48729)
[7] = target: CSNK1D (UniProt P48730)
[8] = target: DDR1 (UniProt Q08345)
[9] = target: DYRK1B (UniProt Q9Y463)
[10] = target: DYRK2 (UniProt Q92630)

Chains of the proteins cited; added tags and fusions are not shown. Lines headed by an entry give the natural chain unless they say otherwise; changes in a name come on top.
UniProt P50613: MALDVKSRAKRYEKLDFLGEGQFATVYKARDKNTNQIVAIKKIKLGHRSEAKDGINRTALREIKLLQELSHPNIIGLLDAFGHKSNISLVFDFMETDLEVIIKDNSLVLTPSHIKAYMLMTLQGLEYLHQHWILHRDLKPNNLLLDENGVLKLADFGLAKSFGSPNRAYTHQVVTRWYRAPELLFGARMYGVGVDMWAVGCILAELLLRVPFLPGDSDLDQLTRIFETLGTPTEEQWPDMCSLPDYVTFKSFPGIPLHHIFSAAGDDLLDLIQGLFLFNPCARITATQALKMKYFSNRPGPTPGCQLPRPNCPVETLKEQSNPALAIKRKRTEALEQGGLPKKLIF
UniProt P50750, whole entry: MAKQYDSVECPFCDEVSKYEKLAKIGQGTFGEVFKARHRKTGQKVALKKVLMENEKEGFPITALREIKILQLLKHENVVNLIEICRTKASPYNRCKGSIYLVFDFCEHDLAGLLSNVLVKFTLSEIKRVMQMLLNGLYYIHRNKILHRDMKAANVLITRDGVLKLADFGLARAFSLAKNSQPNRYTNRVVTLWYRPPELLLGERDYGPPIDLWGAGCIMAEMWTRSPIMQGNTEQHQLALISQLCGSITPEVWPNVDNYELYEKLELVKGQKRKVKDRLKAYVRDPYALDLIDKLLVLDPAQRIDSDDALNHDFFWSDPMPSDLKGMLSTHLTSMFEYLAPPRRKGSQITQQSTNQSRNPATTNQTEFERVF
UniProt O96017, whole entry: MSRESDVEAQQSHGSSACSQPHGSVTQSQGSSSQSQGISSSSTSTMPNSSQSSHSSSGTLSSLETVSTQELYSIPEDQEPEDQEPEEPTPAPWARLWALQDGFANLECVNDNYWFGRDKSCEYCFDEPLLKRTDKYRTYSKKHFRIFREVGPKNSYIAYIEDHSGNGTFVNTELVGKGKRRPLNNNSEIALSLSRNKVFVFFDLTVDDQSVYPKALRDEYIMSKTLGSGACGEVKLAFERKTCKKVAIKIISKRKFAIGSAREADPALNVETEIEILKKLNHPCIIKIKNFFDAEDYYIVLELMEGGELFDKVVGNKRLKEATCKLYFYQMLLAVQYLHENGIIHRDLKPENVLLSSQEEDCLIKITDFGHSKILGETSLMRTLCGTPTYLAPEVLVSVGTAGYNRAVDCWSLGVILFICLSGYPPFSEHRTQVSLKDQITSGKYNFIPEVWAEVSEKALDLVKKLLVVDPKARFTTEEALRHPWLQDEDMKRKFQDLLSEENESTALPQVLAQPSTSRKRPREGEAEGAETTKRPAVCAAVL
UniProt P07333, whole entry: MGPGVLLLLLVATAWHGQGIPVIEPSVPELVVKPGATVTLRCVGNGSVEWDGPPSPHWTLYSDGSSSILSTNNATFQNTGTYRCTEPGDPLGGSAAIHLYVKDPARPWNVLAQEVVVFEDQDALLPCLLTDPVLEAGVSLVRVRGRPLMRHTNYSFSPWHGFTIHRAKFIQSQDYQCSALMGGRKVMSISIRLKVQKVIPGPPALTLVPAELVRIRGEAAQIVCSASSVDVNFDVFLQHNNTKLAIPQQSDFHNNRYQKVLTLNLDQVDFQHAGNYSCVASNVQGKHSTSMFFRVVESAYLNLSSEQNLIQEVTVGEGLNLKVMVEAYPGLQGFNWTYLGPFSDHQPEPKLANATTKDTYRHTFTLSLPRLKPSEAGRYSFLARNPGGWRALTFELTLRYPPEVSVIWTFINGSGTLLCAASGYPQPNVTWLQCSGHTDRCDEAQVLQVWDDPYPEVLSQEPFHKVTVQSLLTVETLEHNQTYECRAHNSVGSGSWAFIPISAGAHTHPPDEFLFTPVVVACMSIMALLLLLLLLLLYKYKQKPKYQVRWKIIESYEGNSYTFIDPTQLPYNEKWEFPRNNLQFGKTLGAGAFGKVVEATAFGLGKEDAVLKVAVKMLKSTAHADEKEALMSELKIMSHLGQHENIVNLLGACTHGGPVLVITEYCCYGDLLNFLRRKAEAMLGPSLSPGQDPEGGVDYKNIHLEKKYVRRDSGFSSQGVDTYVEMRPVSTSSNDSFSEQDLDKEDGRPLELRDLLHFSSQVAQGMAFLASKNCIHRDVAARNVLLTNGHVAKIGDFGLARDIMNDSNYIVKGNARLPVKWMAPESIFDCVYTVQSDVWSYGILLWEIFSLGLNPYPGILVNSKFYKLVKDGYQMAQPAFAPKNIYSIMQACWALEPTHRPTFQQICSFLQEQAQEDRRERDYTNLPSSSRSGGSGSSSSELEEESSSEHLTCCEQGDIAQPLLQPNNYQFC
UniProt P41240: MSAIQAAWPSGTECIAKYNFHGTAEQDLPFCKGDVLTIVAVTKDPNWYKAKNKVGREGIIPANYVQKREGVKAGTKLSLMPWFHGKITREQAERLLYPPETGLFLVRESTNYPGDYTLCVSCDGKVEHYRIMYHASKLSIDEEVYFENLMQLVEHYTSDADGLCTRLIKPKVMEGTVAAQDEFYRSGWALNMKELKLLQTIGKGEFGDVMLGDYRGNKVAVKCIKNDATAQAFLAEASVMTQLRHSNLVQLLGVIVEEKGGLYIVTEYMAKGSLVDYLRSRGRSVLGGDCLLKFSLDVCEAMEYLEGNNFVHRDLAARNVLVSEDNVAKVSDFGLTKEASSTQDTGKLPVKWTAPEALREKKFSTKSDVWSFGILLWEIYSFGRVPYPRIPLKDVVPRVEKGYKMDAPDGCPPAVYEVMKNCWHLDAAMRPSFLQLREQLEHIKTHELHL
UniProt P48729: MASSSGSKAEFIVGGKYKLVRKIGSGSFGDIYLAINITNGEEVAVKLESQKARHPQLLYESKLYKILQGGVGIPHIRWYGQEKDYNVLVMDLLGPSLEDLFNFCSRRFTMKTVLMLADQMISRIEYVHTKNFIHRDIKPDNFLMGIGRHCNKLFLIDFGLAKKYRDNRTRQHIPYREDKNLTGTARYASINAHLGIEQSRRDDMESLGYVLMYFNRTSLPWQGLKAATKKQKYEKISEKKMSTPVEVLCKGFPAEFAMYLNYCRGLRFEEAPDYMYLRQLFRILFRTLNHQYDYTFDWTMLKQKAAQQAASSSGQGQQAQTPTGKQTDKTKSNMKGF
UniProt P48730: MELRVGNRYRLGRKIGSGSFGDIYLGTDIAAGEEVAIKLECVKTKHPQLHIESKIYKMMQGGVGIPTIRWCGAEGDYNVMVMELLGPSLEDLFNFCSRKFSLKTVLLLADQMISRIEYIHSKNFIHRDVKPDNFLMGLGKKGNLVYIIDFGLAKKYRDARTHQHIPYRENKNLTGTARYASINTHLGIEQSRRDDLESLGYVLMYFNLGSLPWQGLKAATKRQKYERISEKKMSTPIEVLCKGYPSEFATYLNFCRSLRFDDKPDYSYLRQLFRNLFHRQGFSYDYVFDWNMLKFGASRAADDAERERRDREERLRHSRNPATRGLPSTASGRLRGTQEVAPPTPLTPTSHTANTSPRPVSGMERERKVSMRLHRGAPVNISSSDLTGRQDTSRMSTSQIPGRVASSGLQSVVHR
UniProt Q08345: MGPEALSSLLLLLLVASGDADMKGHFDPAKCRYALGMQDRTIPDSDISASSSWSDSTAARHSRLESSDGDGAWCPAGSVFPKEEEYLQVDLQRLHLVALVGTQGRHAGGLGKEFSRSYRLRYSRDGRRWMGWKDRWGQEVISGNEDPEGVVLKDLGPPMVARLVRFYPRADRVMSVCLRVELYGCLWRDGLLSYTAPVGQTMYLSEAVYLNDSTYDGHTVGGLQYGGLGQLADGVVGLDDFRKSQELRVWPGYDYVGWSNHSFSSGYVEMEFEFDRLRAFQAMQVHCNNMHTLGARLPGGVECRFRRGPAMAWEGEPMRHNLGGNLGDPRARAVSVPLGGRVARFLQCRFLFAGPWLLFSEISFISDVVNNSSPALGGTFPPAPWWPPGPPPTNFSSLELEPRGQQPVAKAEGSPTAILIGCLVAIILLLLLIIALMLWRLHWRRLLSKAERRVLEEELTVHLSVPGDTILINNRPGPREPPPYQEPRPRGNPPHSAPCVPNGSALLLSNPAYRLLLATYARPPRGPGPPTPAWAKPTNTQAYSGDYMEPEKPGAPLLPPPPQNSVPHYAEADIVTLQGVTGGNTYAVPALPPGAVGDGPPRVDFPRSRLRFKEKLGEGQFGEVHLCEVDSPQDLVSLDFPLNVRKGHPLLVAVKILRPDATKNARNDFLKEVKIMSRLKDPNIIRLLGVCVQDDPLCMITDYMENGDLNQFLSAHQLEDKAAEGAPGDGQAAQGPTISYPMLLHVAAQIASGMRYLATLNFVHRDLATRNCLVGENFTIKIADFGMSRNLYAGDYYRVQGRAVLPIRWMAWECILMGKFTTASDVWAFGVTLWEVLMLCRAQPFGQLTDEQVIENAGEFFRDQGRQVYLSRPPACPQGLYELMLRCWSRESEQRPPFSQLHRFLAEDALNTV
UniProt Q9Y463, whole entry, looked up: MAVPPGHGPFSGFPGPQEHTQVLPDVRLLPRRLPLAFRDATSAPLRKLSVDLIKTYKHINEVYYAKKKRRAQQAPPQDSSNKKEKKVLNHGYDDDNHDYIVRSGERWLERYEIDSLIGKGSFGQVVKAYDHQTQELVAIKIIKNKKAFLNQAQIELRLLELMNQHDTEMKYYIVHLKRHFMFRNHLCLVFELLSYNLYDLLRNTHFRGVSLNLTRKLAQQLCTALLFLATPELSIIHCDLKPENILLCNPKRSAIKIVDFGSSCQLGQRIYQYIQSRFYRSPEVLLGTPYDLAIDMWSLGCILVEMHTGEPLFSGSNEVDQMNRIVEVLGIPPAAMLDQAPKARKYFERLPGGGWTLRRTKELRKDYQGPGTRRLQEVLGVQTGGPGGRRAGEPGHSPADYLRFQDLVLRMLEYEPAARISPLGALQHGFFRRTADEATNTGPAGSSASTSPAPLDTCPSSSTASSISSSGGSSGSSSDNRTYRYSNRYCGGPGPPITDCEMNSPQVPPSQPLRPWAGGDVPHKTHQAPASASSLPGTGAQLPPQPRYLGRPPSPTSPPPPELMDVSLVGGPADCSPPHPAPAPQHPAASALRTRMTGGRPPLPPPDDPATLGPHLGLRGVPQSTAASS
UniProt Q92630: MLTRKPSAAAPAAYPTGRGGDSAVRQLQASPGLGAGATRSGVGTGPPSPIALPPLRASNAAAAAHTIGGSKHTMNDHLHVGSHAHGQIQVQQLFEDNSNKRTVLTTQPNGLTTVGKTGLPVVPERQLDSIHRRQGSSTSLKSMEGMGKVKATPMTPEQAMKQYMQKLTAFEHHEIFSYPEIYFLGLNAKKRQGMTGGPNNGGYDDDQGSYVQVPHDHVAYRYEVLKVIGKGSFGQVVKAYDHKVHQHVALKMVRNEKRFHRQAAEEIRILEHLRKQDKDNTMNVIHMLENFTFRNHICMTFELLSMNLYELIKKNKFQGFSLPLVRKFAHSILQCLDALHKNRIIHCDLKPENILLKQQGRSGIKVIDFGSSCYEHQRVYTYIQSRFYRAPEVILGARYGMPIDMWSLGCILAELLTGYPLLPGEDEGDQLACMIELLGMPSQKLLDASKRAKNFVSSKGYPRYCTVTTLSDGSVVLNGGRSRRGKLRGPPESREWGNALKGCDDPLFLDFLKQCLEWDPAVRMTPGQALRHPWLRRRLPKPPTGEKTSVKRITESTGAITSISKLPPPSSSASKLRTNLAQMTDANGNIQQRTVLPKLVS

Measured: kinase-Nluc reporter destabilization hit call

CC(C)Oc1ccc(-c2nn([C@@H](C)c3oc4ccc(F)cc4c(=O)c3-c3cccc(F)c3)c3ncnc(N)c23)cc1F [Umbralisib]
inactive: [1]; 2.5 µM 0 | [2]; 2.5 µM 0 | [3]; 2.5 µM 0 | [4]; 2.5 µM 0 | [5]; 2.5 µM 0 | [6]; 2.5 µM 0 | [7]; 2.5 µM 0 | [8]; 2.5 µM 0 | [9]; 2.5 µM 0 | [10]; 2.5 µM 0

C=CC(=O)Nc1cc(Nc2ncc(C(=O)OC(C)C)c(-c3cn(C)c4ccccc34)n2)c(OC)cc1N(C)CCN(C)C [Mobocertinib]
inactive: [1]; 10 µM 0 | [2]; 10 µM 0 | [3]; 10 µM 0 | [4]; 10 µM 0 | [5]; 10 µM 0 | [6]; 10 µM 0 | [7]; 10 µM 0 | [8]; 10 µM 0 | [9]; 10 µM 0 | [10]; 10 µM 0

CCCCCCCCc1ccc(CCC(N)(CO)CO)cc1 [Fingolimod (hydrochloride)]
inactive: [1]; 2.5 µM 0 | [2]; 2.5 µM 0 | [3]; 2.5 µM 0 | [4]; 2.5 µM 0 | [5]; 2.5 µM 0 | [6]; 2.5 µM 0 | [7]; 2.5 µM 0 | [8]; 2.5 µM 0 | [9]; 2.5 µM 0 | [10]; 2.5 µM 0

CCCC(=O)Nc1ncnc2c1ncn2[C@@H]1O[C@@H]2COP(=O)(O)O[C@H]2[C@H]1OC(=O)CCC [Bucladesine (calcium)]
inactive: [1]; 10 µM 0 | [2]; 10 µM 0 | [3]; 10 µM 0 | [4]; 10 µM 0 | [5]; 10 µM 0 | [6]; 10 µM 0 | [7]; 10 µM 0 | [8]; 10 µM 0 | [9]; 10 µM 0 | [10]; 10 µM 0

COCCOc1cc(F)c2c(Nc3ccc(NC(=O)Cn4cc(C(C)C)nn4)cc3)ncnc2c1
inactive: [1]; 10 µM 0 | [2]; 10 µM 0 | [3]; 10 µM 0 | [4]; 10 µM 0 | [5]; 10 µM 0 | [6]; 10 µM 0 | [7]; 10 µM 0 | [8]; 10 µM 0 | [9]; 10 µM 0 | [10]; 10 µM 0

CCCCCCCCc1ccc(CCC(N)(CO)CO)cc1 [Fingolimod]
inactive: [1]; 2.5 µM 0 | [2]; 2.5 µM 0 | [3]; 2.5 µM 0 | [4]; 2.5 µM 0 | [5]; 2.5 µM 0 | [6]; 2.5 µM 0 | [7]; 2.5 µM 0 | [8]; 2.5 µM 0 | [9]; 2.5 µM 0 | [10]; 2.5 µM 0

Oc1cccc(-c2nc(N3CCOCC3)c3oc4ncccc4c3n2)c1 [PI-103 (Hydrochloride)]
inactive: [1]; 2.5 µM 0 | [2]; 2.5 µM 0 | [3]; 2.5 µM 0 | [4]; 2.5 µM 0 | [5]; 2.5 µM 0 | [6]; 2.5 µM 0 | [7]; 2.5 µM 0 | [8]; 2.5 µM 0 | [9]; 2.5 µM 0 | [10]; 2.5 µM 0

CC(C)NC[C@@H](C(=O)N1CCN(c2ncnc3c2[C@H](C)C[C@H]3O)CC1)c1ccc(Cl)cc1 [Ipatasertib]
inactive: [1]; 10 µM 0 | [2]; 10 µM 0 | [3]; 10 µM 0 | [4]; 10 µM 0 | [5]; 10 µM 0 | [6]; 10 µM 0 | [7]; 10 µM 0 | [8]; 10 µM 0 | [9]; 10 µM 0 | [10]; 10 µM 0

N=C(N)NC(=O)c1nc(Cl)c(N)nc1N [Amiloride (hydrochloride)]
inactive: [1]; 10 µM 0 | [2]; 10 µM 0 | [3]; 10 µM 0 | [4]; 10 µM 0 | [5]; 10 µM 0 | [6]; 10 µM 0 | [7]; 10 µM 0 | [8]; 10 µM 0 | [9]; 10 µM 0 | [10]; 10 µM 0

O=C(Nc1cnn2ccc(N3CCC[C@@H]3c3cc(F)ccc3F)nc12)N1CC[C@H](O)C1 [Larotrectinib]
inactive: [1]; 10 µM 0 | [2]; 10 µM 0 | [3]; 10 µM 0 | [4]; 10 µM 0 | [5]; 10 µM 0 | [6]; 10 µM 0 | [7]; 10 µM 0 | [8]; 10 µM 0 | [9]; 10 µM 0 | [10]; 10 µM 0

Nc1ncnc2c1c(-c1ccc(Oc3ccccc3)cc1)nn2[C@@H]1CCCNC1
inactive: [1]; 2.5 µM 0 | [2]; 2.5 µM 0 | [3]; 2.5 µM 0 | [4]; 2.5 µM 0 | [5]; 2.5 µM 0 | [6]; 2.5 µM 0 | [7]; 2.5 µM 0 | [8]; 2.5 µM 0 | [9]; 2.5 µM 0 | [10]; 2.5 µM 0

C[C@@H](N)[C@H]1CC[C@H](C(=O)Nc2ccncc2)CC1
inactive: [1]; 10 µM 0 | [2]; 10 µM 0 | [3]; 10 µM 0 | [4]; 10 µM 0 | [5]; 10 µM 0 | [6]; 10 µM 0 | [7]; 10 µM 0 | [8]; 10 µM 0 | [9]; 10 µM 0 | [10]; 10 µM 0

CCS(=O)(=O)N1CC(CC#N)(n2cc(-c3ncnc4[nH]ccc34)cn2)C1 [Baricitinib (phosphate)]
inactive: [1]; 10 µM 0 | [2]; 10 µM 0 | [3]; 10 µM 0 | [4]; 10 µM 0 | [5]; 10 µM 0 | [6]; 10 µM 0 | [7]; 10 µM 0 | [8]; 10 µM 0 | [9]; 10 µM 0 | [10]; 10 µM 0

Two successive entries already listed, for reference:
CCCCCCCCc1ccc(CCC(N)(CO)CO)cc1 [Fingolimod]
inactive: [1]; 2.5 µM 0 | [2]; 2.5 µM 0 | [3]; 2.5 µM 0 | [4]; 2.5 µM 0 | [5]; 2.5 µM 0 | [6]; 2.5 µM 0 | [7]; 2.5 µM 0 | [8]; 2.5 µM 0 | [9]; 2.5 µM 0 | [10]; 2.5 µM 0

Oc1cccc(-c2nc(N3CCOCC3)c3oc4ncccc4c3n2)c1 [PI-103 (Hydrochloride)]
inactive: [1]; 2.5 µM 0 | [2]; 2.5 µM 0 | [3]; 2.5 µM 0 | [4]; 2.5 µM 0 | [5]; 2.5 µM 0 | [6]; 2.5 µM 0 | [7]; 2.5 µM 0 | [8]; 2.5 µM 0 | [9]; 2.5 µM 0 | [10]; 2.5 µM 0

Remaining list, next part.

CC(=O)c1c(C)c2cnc(Nc3ccc(N4CCNCC4)cn3)nc2n(C2CCCC2)c1=O [Palbociclib (monohydrochloride)]
inactive: [1]; 10 µM 0 | [2]; 10 µM 0 | [3]; 10 µM 0 | [4]; 10 µM 0 | [5]; 10 µM 0 | [7]; 10 µM 0 | [8]; 10 µM 0 | [9]; 10 µM 0 | [10]; 10 µM 0

CC(=O)c1c(C)c2cnc(Nc3ccc(N4CCNCC4)cn3)nc2n(C2CCCC2)c1=O [Palbociclib (isethionate)]
inactive: [1]; 10 µM 0 | [2]; 10 µM 0 | [3]; 10 µM 0 | [4]; 10 µM 0 | [5]; 10 µM 0 | [7]; 10 µM 0 | [8]; 10 µM 0 | [9]; 10 µM 0 | [10]; 10 µM 0

COc1ccnc(C[S+]([O-])c2nc3cc(-n4cccc4)ccc3[nH]2)c1C (stereo not drawn) [Ilaprazole]
inactive: [1]; 10 µM 0 | [2]; 10 µM 0 | [3]; 10 µM 0 | [4]; 10 µM 0 | [5]; 10 µM 0 | [6]; 10 µM 0 | [7]; 10 µM 0 | [8]; 10 µM 0 | [9]; 10 µM 0 | [10]; 10 µM 0

OCCn1cc(-c2cnc3nnn(Cc4ccc5ncccc5c4)c3n2)cn1
inactive: [1]; 10 µM 0 | [2]; 10 µM 0 | [3]; 10 µM 0 | [4]; 10 µM 0 | [5]; 10 µM 0 | [6]; 10 µM 0 | [7]; 10 µM 0 | [8]; 10 µM 0 | [9]; 10 µM 0 | [10]; 10 µM 0

CC(=O)N[C@H](Cc1ccc(O)cc1)C(=O)N[C@H](CCCN=C(N)N)C(=O)N[C@H](Cc1ccccc1)C(N)=O
inactive: [1]; 10 µM 0 | [2]; 10 µM 0 | [3]; 10 µM 0 | [4]; 10 µM 0 | [5]; 10 µM 0 | [6]; 10 µM 0 | [7]; 10 µM 0 | [8]; 10 µM 0 | [9]; 10 µM 0 | [10]; 10 µM 0

C#Cc1cccc(Nc2ncnc3cc(OCCOC)c(OCCOC)cc23)c1 [Erlotinib]
inactive: [1]; 10 µM 0 | [2]; 10 µM 0 | [3]; 10 µM 0 | [4]; 10 µM 0 | [5]; 10 µM 0 | [6]; 10 µM 0 | [7]; 10 µM 0 | [8]; 10 µM 0 | [9]; 10 µM 0 | [10]; 10 µM 0

COc1ccc(S(=O)(=O)N(CCO)c2ccccc2CN(C)C/C=C/c2ccc(Cl)cc2)cc1 [KN-93 (phosphate)]
inactive: [1]; 2.5 µM 0 | [2]; 2.5 µM 0 | [3]; 2.5 µM 0 | [4]; 2.5 µM 0 | [5]; 2.5 µM 0 | [6]; 2.5 µM 0 | [7]; 2.5 µM 0 | [8]; 2.5 µM 0 | [9]; 2.5 µM 0 | [10]; 2.5 µM 0

N#CC[C@H](C1CCCC1)n1cc(-c2ncnc3[nH]ccc23)cn1 [Ruxolitinib (phosphate)]
inactive: [1]; 10 µM 0 | [2]; 10 µM 0 | [3]; 10 µM 0 | [4]; 10 µM 0 | [5]; 10 µM 0 | [6]; 10 µM 0 | [7]; 10 µM 0 | [8]; 10 µM 0 | [9]; 10 µM 0 | [10]; 10 µM 0

CCS(=O)(=O)N1CC(CC#N)(n2cc(-c3ncnc4[nH]ccc34)cn2)C1 [Baricitinib]
inactive: [1]; 10 µM 0 | [2]; 10 µM 0 | [3]; 10 µM 0 | [4]; 10 µM 0 | [5]; 10 µM 0 | [6]; 10 µM 0 | [7]; 10 µM 0 | [8]; 10 µM 0 | [9]; 10 µM 0 | [10]; 10 µM 0

CS(=O)(=O)N1CCN(Cc2cc3nc(-c4cccc5[nH]ncc45)nc(N4CCOCC4)c3s2)CC1 [Pictilisib]
inactive: [1]; 10 µM 0 | [2]; 10 µM 0 | [3]; 10 µM 0 | [4]; 10 µM 0 | [5]; 10 µM 0 | [6]; 10 µM 0 | [7]; 10 µM 0 | [8]; 10 µM 0 | [9]; 10 µM 0 | [10]; 10 µM 0

C=CC(=O)Nc1cc(Nc2nccc(-c3cn(C4CC4)c4ccccc34)n2)c(OC)cc1N(C)CCN(C)C [Almonertinib (hydrochloride)]
inactive: [1]; 2.5 µM 0 | [2]; 2.5 µM 0 | [3]; 2.5 µM 0 | [4]; 2.5 µM 0 | [5]; 2.5 µM 0 | [6]; 2.5 µM 0 | [7]; 2.5 µM 0 | [8]; 2.5 µM 0 | [9]; 2.5 µM 0 | [10]; 2.5 µM 0

COCCOc1cc(F)c2c(Nc3ccc(NC(=O)Cn4cc(C(C)C)nn4)cc3)ncnc2c1 [AZD3229 Tosylate]
inactive: [1]; 10 µM 0 | [2]; 10 µM 0 | [3]; 10 µM 0 | [4]; 10 µM 0 | [5]; 10 µM 0 | [6]; 10 µM 0 | [7]; 10 µM 0 | [8]; 10 µM 0 | [9]; 10 µM 0 | [10]; 10 µM 0
